Measured values: PubChem BioAssay AID248 (DTP/NCI, 2004)
The list is a part of this screen's results and no random one: it is rich in T/C values a quarter to a half above the control, in often repeated tests (any T/C) and in doses without a T/C. Further doses and runs are listed elsewhere. T/C: endpoint of the treated group in % of that of the vehicle group. Some doses have a count of surviving animals in place of a T/C: the source holds a T/C of zero for them, seemingly a mark for toxic or unscored doses. Some doses without a T/C left all or most animals alive at the check, yet need not have been tolerated: the source hardly ever lists a survival T/C far under the control, and the zero likely stands for such cases as well. Counts of survivors are from the toxicity check (mostly the fifth day) where no day follows; animals may have died later. Schedule codes are those of the source, taken here to give the interval after Q, in days (D) or hours (H), and the number of doses after X. Some entries were tested several times; the values are given in rising order. Some schedules carry Z or #; the key to these is not given. Where survival is the endpoint, the PubChem record calls one and a half times the control and up active, and a quarter to a half above the control has no call in these data; cut-offs in other NCI protocols can differ. Counts like (3×) stand for listed records that agree.

Tested on: L1210 leukemia ip in BDF1 mice, survival T/C
Test: NCI In Vivo Anticancer Drug Screen. Data for tumor model L1210 Leukemia (intraperitoneal) in B6D2F1 (BDF1) mice
Details: T/C endpoint: mean survival time, higher T/C = longer survival
[1] = dose: 25.0 mg/kg/injection, schedule: Q01DX009 (ip), vehicle: saline with Tween-80
[2] = dose: 50.0 mg/kg/injection, schedule: Q01DX009 (ip), vehicle: saline with Tween-80
[3] = dose: 100.0 mg/kg/injection, schedule: Q01DX009 (ip), vehicle: saline with Tween-80
[4] = dose: 200.0 mg/kg/injection, schedule: Q01DX009 (ip), vehicle: saline with Tween-80
[5] = dose: 200.0 mg/kg/injection, schedule: Q04DX003 (ip), vehicle: saline with Tween-80
[6] = dose: 400.0 mg/kg/injection, schedule: Q01DX009 (ip), vehicle: saline with Tween-80
[7] = dose: 200.0 mg/kg/injection, schedule: Q01DX009 (ip), vehicle: Klucel (hydroxypropylcellulose) (HPC)
[8] = dose: 100.0 mg/kg/injection, schedule: Q01DX009 (ip), vehicle: Klucel (hydroxypropylcellulose) (HPC)
[9] = dose: 100.0 mg/kg/injection, schedule: Q04DX002 (ip), vehicle: other
[10] = dose: 200.0 mg/kg/injection, schedule: Q04DX002 (ip), vehicle: other
[11] = dose: 400.0 mg/kg/injection, schedule: Q04DX002 (ip), vehicle: other
[12] = dose: 200.0 mg/kg/injection, schedule: Q04DX003 (ip), vehicle: saline
[13] = dose: 400.0 mg/kg/injection, schedule: Q04DX003 (ip), vehicle: saline
[14] = dose: 400.0 mg/kg/injection, schedule: Q01DX009 (ip), vehicle: Klucel (hydroxypropylcellulose) (HPC)

`O=[N+]([O-])c1ccc(S(=O)(=O)c2ccccc2)c([N+](=O)[O-])c1` was tested, and the survivor count (dose: 100.0 mg/kg/injection, schedule: Q01DX001 (ip), vehicle: saline) was 0 of 6.
With `CC1(NO)CCCCC1` the survivor count (dose: 400.0 mg/kg/injection, schedule: Q01DX001 (ip), vehicle: Klucel (hydroxypropylcellulose) (HPC)) was 0 of 6.
For `CN1CCN(C(=O)Cc2c[nH]c3ccccc23)CC1`, the survivor count (dose: 12.5 mg/kg/injection, schedule: Q01DX009 (ip), vehicle: saline with Tween-80) was 1 of 6, the survivor count [1] was 6 of 6 and the survivor count [2] was 6 of 6. The survivor count [3] was 6 of 6, the survivor count [4] was 2 of 6 and the survivor count [5] was 3 of 6. For the same compound, the survivor count [6] was 0 of 6 and the survivor count (dose: 400.0 mg/kg/injection, schedule: Q04DX003 (ip), vehicle: saline with Tween-80) was 2 of 6.
With `C=CCN(CC=C)C(=S)[S-].C=CCN(CC=C)C(=S)[S-].[Zn]` the survivor count (dose: 20.0 mg/kg/injection, schedule: Q04DX003 (ip), vehicle: saline) was 5 of 6, the survivor count (dose: 40.0 mg/kg/injection, schedule: Q01DX001 (ip), vehicle: saline) was 0 of 6 and the survivor count (dose: 75.0 mg/kg/injection, schedule: Q01DX001 (ip), vehicle: acetone) was 0 of 6. The survivor count (dose: 150.0 mg/kg/injection, schedule: Q01DX001 (ip), vehicle: acetone) was 0 of 6 and the survivor count (dose: 300.0 mg/kg/injection, schedule: Q01DX001 (ip), vehicle: acetone) was 0 of 6.
`Cc1ccc(C(N)=O)cn1` was tested, and the T/C (dose: 100.0 mg/kg/injection, schedule: Q04DX003 (ip), vehicle: saline with Tween-80) was 126 % of control.
With `OC(C/C=C/c1ccccc1)c1ccccc1` (stereo not given) the survivor count [7] was 3 of 3.
In the case of `CC[N+](C)(CC)c1ccc(/C=N\N(C)C)cc1`, the survivor count (dose: 50.0 mg/kg/injection, schedule: Q01DX009 (ip), vehicle: Klucel (hydroxypropylcellulose) (HPC)) is reported as 0 of 3, the survivor count [8] is reported as 0 of 3 and the survivor count [7] is reported as 0 of 3.
With `COc1cc(OC)c(NC(=S)Nc2ccccc2C(F)(F)F)cc1Cl` the survivor count [8] was 6 of 6.
With `Nc1ccc(S(=O)c2ccc(N)cc2)cc1` the survivor count [9] was 0 of 3, the survivor count [10] was 0 of 3 and the survivor count [11] was 0 of 3.
In the case of `COC(CCCl)c1ccccc1` (stereo not given), the survivor count [6] is reported as 3 of 6.
For `CC1CCCCN1CCCO` (stereo not given), the survivor count [12] was 0 of 6 and the survivor count [13] was 1 of 6.
For `O=C(/C=C\c1ccccc1)/C=C/c1ccccc1`, the survivor count [14] was 6 of 6.
`CC/C(=C\c1ccc2ccccc2c1)[N+](=O)[O-]` was tested, and the survivor count (dose: 300.0 mg/kg/injection, schedule: Q01DX001 (ip), vehicle: saline) was 3 of 6.
With `O=NN(CCCl)C(=O)Nc1ccc(Oc2ccc(NC(=O)N(CCCl)N=O)cc2)cc1` the T/C (dose: 20.0 mg/kg/injection, schedule: Q01DX001 (ip), vehicle: carboxymethylcellulose (CMC)) was 144 % of control, the T/C (dose: 40.0 mg/kg/injection, schedule: Q01DX001 (ip), vehicle: carboxymethylcellulose (CMC)) was 140 % of control and the T/C (dose: 60.0 mg/kg/injection, schedule: Q01DX001 (ip), vehicle: carboxymethylcellulose (CMC)) was 134 % of control. The T/C (dose: 93.0 mg/kg/injection, schedule: Q01DX001 (ip), vehicle: carboxymethylcellulose (CMC)) was 146 % of control and the T/C (dose: 187.0 mg/kg/injection, schedule: Q01DX001 (ip), vehicle: carboxymethylcellulose (CMC)) was 146 % of control.
`CS(=O)(=O)OCCC(=O)NCCCCNC(=O)CCOS(C)(=O)=O` was tested, and the T/C [12] was 127 % of control, the T/C (dose: 264.0 mg/kg/injection, schedule: Q01DX009 (ip), vehicle: saline with Tween-80) was 137 % of control and the T/C (dose: 400.0 mg/kg/injection, schedule: Q01DX001 (ip), vehicle: saline) was 129 and 135 % of control. For the same compound, the T/C [13] was 132 % of control.
For `Nc1n[nH]c(=O)[nH]1`, the T/C (dose: 150.0 mg/kg/injection, schedule: Q03HX024 (ip), vehicle: saline) was 139 % of control, the T/C (dose: 178.0 mg/kg/injection, schedule: Q01DX009 (ip), vehicle: saline) was 133 % of control and the T/C (dose: 266.0 mg/kg/injection, schedule: Q01DX009 (ip), vehicle: saline) was 147 % of control. For the same compound, the T/C (dose: 400.0 mg/kg/injection, schedule: Q01DX009 (ip), vehicle: saline) was 144 and 146 % of control.
In the case of `O/N=C\c1cc[n+](CC[n+]2ccc(/C=N/O)cc2)cc1`, the survivor count [10] is reported as 0 of 3 and the survivor count [11] is reported as 1 of 3.
`Cc1c(C(=O)NN)no[n+]1[O-]` was tested, and the survivor count (dose: 100.0 mg/kg/injection, schedule: Q04DX002 (ip), vehicle: Klucel (hydroxypropylcellulose) (HPC)) was 1 of 3, the survivor count (dose: 200.0 mg/kg/injection, schedule: Q04DX002 (ip), vehicle: Klucel (hydroxypropylcellulose) (HPC)) was 0 of 3 and the survivor count (dose: 400.0 mg/kg/injection, schedule: Q04DX002 (ip), vehicle: Klucel (hydroxypropylcellulose) (HPC)) was 0 of 3.
With `C=CC(=C)CCC=C(C)C` the survivor count (dose: 100.0 mg/kg/injection, schedule: Q04DX003 (ip), vehicle: saline) was 6 of 6.
For `FC(F)(F)c1ccc2nc(CI)c(CI)nc2c1`, the survivor count (dose: 25.0 mg/kg/injection, schedule: Q01DX009 (ip), vehicle: other) was 6 of 6, the survivor count [1] was 4 of 6 and the survivor count (dose: 50.0 mg/kg/injection, schedule: Q01DX009 (ip), vehicle: other) was 4 of 6. For the same compound, the survivor count [2] was 1 of 6, the survivor count (dose: 100.0 mg/kg/injection, schedule: Q01DX009 (ip), vehicle: other) was 0 of 6 and the survivor count [3] was 0 of 6. The survivor count (dose: 100.0 mg/kg/injection, schedule: Q04DX003 (ip), vehicle: other) was 6 of 6, the survivor count [4] was 0 of 6 and the survivor count (dose: 200.0 mg/kg/injection, schedule: Q04DX003 (ip), vehicle: other) was 0 of 6. For the same compound, the survivor count [6] was 0 of 6 and the survivor count (dose: 400.0 mg/kg/injection, schedule: Q04DX003 (ip), vehicle: other) was 1 of 6.
`CN(C)c1ccc(/C=N/NC(=O)CCCCCCCCC(=O)N/N=C/c2ccc(N(C)C)cc2)cc1` was tested, and the T/C [2] was 94, 97 (2×), 105 % of control, the T/C [3] was 94 and 103 % of control and the survivor count [3] was 4 of 6 and 3 of 3. The survivor count [4] was 0 of 6 and 1 of 3, the survivor count [5] was 6 of 6 and the survivor count (dose: 400.0 mg/kg/injection, schedule: Q01DX001 (ip), vehicle: saline with Tween-80) was 0 of 3. The survivor count (dose: 400.0 mg/kg/injection, schedule: Q04DX002 (ip), vehicle: saline with Tween-80) was 3 of 6.
With `CCOC(=O)C(=Cc1ccc(Cl)cc1)C(=O)OCC` the survivor count [8] was 6 of 6, the survivor count [7] was 4 of 6 and the survivor count [14] was 0 of 6.
`Cc1csc2n1cc1cccc[n+]12` was tested, and the survivor count [9] was 1 of 3, the survivor count [10] was 1 of 3 and the survivor count [11] was 0 of 3.
`CCCCN(CCCC)CCCCCN` was tested, and the survivor count (dose: 200.0 mg/kg/injection, schedule: Q01DX Z (ip), vehicle: carboxymethylcellulose (CMC)) was 0 of 6.
In the case of `c1ccc(C2O[O][Sn]([c]3ccccc3)([c]3ccccc3)[O]2)cc1` (stereo not given), the survivor count (dose: 200.0 mg/kg/injection, schedule: Q04DX002 (ip), vehicle: gum acacia) is reported as 3 of 3 and the survivor count (dose: 400.0 mg/kg/injection, schedule: Q04DX002 (ip), vehicle: gum acacia) is reported as 2 of 3.
